Reference: patent US20050063989A1, “Ion channel hybrid proteins as electrical sensors and use thereof” (COMMISSARIAT A L'ENERGIE ATOMIQUE, priority 2003, published 2005)

Test system: Xenopus oocytes
Experiment: Oocyte surface protein assay: chemiluminescent detection of HA epitope
Assay type: cell-based, Xenopus laevis
Details: HA-tagged fusion proteins

## MRP1-Kir6.2: fusion of human MRP1 C-terminus to mouse Kir6.2 N-terminus with hexaglycine spacer
  Surface density of fusion protein, fold lower than SUR1-Kir6.2: 5 fold
  Surface density of fusion protein, fold lower than SUR2A-Kir6.2: 4 fold
